Results are given in words; binding and its absence hold for the method and conditions named. Binding seen in cells or lysates may run through a third protein. A result given as binding can be weak or reduced; the word gives no strength.

Chains of the proteins cited; added tags and fusions are not shown.
UniProt P01100: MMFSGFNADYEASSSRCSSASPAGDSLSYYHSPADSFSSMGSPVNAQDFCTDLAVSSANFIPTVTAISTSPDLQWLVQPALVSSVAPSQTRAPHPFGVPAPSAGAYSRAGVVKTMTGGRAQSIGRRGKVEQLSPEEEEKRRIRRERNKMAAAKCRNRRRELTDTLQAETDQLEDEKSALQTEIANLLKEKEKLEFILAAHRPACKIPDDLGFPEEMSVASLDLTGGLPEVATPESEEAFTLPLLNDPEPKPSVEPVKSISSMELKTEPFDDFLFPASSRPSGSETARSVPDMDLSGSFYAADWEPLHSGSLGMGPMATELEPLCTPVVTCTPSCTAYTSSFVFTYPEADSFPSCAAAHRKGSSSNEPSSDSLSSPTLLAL
UniProt P05412: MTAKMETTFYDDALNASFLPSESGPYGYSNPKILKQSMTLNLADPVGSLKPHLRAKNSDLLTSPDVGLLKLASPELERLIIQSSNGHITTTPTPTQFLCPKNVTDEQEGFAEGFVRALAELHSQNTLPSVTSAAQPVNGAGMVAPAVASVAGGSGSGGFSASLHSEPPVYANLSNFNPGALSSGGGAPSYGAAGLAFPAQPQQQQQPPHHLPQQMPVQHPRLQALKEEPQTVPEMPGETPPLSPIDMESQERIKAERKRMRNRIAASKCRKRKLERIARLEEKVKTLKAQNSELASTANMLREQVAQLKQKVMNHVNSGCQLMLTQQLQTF

This test concerns the target Flag-p300^Mut (from pCDNA3-2×Flag-p300^Mut; PMDLS motif mutated to AMAAS) (UniProt Q09472). In words: co-IP; Flag-tagged and Myc-tagged plasmids co-transfected into HC-OA cells, 48 h, lysed, anti-Flag agarose and anti-c-Myc agarose 4°C 2 h, four washes with 1×RIPA; blots with anti-Flag and anti-Myc.
For the substance “Myc-c-FOS (AP1 subunit, from pCDNA3-6×Myc-c-FOS) (from UniProt P01100 1-380)”, the binding entry is “binds”.

As to “Myc-c-Jun (AP1 subunit, from pCDNA3-6×Myc-c-Jun) (from UniProt P05412 1-331)”, the binding entry is recorded as “binds”. With “Myc-CtBP2 (from pCDNA3-6×Myc-CtBP2) (from UniProt P56545 1-445)”, the binding result is given as “no binding”.

The values above are taken from paper PMC7053340.
